Data taken from ChEMBL document CHEMBL3988442, “University of Dundee, Small-Polar-MMV Screening Library” (2021).

Mtb cholesterol medium: 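Whole-cell growth test on Mycobacterium tuberculosis, read after 4 days in a medium based on cholesterol and the lipid DPPC; the read-out is not stated. Concentration: 50 µM. Higher reads as more growth inhibition (inferred: compounds with an IC50 in retests scored well above the rest). Of about 69,000 compounds tested this way, about 370 (0.54%) reached 50% or more in at least one test.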
Mtb glucose medium: 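Growth of Mycobacterium tuberculosis over 3 days (7H9 medium with glucose and tyloxapol); the read-out is not stated. Compounds at 50 µM. Higher reads as more growth inhibition (inferred: compounds with an IC50 in retests scored well above the rest). Of about 69,000 compounds tested this way, about 760 (1.1%) reached 50% or more in at least one test.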

Each number is a percent effect as filed.
How 0% and 100% were set is not recorded. Most values in the screen are low, and negative values occur.
The compounds are a random part of those screened.
Two or more numbers in one place are separate tests of the same structure; such repeats can differ widely.

| # | SMILES | Mtb cholesterol medium | Mtb glucose medium |
|---|---|---|---|
| 1 | `NC(=O)C(NC(=O)COC1CCCCC1)c1ccccc1` (centres unmarked) | 3.9 | 1.528 & -7.6 |
| 2 | `CC(=O)NCc1cncc(C2CCCN2C2CCOCC2)n1` (centres unmarked) | -11.03 & -6.829 | 10.98 |
| 3 | `[H][C@@]12CCN(C(=O)Cc3ccsc3)C[C@]1([H])[C@H](c1nnc(C)o1)CCO2` | -8.886 | 3.645 |
| 4 | `COCCOc1ccc(NC(=O)N(C(C)C)C2CC2)cn1` | 0.08202 | 6.663 |
| 5 | `Cn1cc(CN2CCCN(C(=O)c3ccc4c(c3)COC4)CC2)cn1` | -10.95 | -0.8236 |
| 6 | `O=C(O)[C@H]1CCCN1CCOc1cccc(Cl)c1` | 7.304 | -4.326 |
| 7 | `COc1c(CNCCc2c[nH]c3cc(F)ccc23)c(C(C)C)nn1C` | -11.43 & 4.388 | -8.494 |
| 8 | `O=C(c1ccc2[nH]cnc2c1)N1CCC(Oc2cccnc2)CC1` | 30.58 | 22.48 |
| 9 | `O=C(NCC1CC2(CO1)CN(c1nncs1)C2)C1CCC1` (centres unmarked) | 4.728 | 36.19 |
| 10 | `CC1CN(Cc2nc(Cc3ccccc3F)no2)CCN1C` (centres unmarked) | -3.002 | -36.94 |
| 11 | `Cc1cc(C[C@@H]2COC[C@@H]2NC(=O)CN2CCCC2)on1` | -2.718 | 39.92 & -4.69 |
| 12 | `Cn1ncc2c(=O)[nH]c(CN3CCCC3c3cccc(F)c3)nc21` (centres unmarked) | 4.969 | -44.65 & 1.949 |
| 13 | `CCCc1nnc2sc(C3CCN(C4CCN(C)CC4)CC3)nn12` | -2.747 | -5.86 & 7.667 |
| 14 | `COCC1COCCC12CCN(C(=O)Cc1ccc(F)cc1)CC2` (centres unmarked) | -3.918 | 18.41 |
| 15 | `Cc1cnn(CC2CN(c3ccc(C#N)cn3)CCO2)c1` (centres unmarked) | 14.1 | -42.77 |
| 16 | `CCOCCC(=O)Nc1cccc(Cl)c1COC` | 0.2031 | 14.68 |
| 17 | `CC(C)CN1Cc2nc(N)ncc2C1=O` | -0.7562 | -3.487 |
| 18 | `CC(CNC(=O)c1cc(Cl)ccc1F)N1CCCC1` (centres unmarked) | 4.813 | 3.681 & -5.273 |
| 19 | `Br.O=C(CN(C1=NCCCC1)c1ccccc1)c1ccc(OC(F)F)cc1` | 56.27 | 64.71 |
| 20 | `Cc1cc(NC(=O)CN2CCn3c(nnc3C3CC3)C2)on1` | 8.169 | 14.23 |
| 21 | `CNCc1ccc([C@@H]2CN(C)C[C@H]2C(N)=O)cc1.Cl` | 5.214 & -17.24 | -5.797 |
| 22 | `CNS(=O)(=O)Cc1ccc(CNC(=O)Nc2cccnc2)cc1` | 2.453 | 14.81 |
| 23 | `COc1cccc(N2CCN(C(=O)C(O)c3cccc(Cl)c3)CC2=O)c1` (centres unmarked) | -11.1 | -35.13 |
| 24 | `CCOC(=O)C1CN(S(=O)(=O)CC)Cc2ncn(CC)c21` (centres unmarked) | 3.307 | -0.1986 & -38.4 |
| 25 | `CS(=O)(=O)N1Cc2cnn(CC3CC3)c2C(COCC2CC2)C1.O=C(O)C(F)(F)F` (centres unmarked) | 9.412 | 20.79 & 5.634 |
| 26 | `COc1ncccc1CNC(=O)c1cc(Cl)ccn1` | 6.522 | -16.3 |
| 27 | `CC(=O)N(Cc1noc(C)n1)C1CCN(Cc2cnc(C)s2)C1` (centres unmarked) | -3.142 | 8.324 |
| 28 | `O=C1COc2ccc(S(=O)(=O)N3CCOCC3)c3c2N1CCC3` | -2.395 | -35.4 |
| 29 | `CC(C)CC(C)NCc1cccnc1N1CCN(c2ccccn2)CC1` (centres unmarked) | -24.74 | -14.33 & 7.573 |
| 30 | `COc1ncc(C(=O)N(Cc2cnn(C)c2)C(C)C)cn1` | -4.705 | -3.754 |
| 31 | `O=C(CN1CC(c2ccccc2)CC1=O)N1CCC(c2ncc[nH]2)CC1` (centres unmarked) | -4.01 | 0.6388 |
| 32 | `Cc1cnn(CC2CCCN2Cc2c(C)noc2C)c1` (centres unmarked) | 12.04 | 29.33 |
| 33 | `CSc1ccc(CN(CCO)C(=O)CCc2cccc(F)c2)cc1` | 39.59 | 22.75 |
| 34 | `CCOC(=O)[C@H]1CNC[C@@H]1C(=O)OCC` | -20.7 | 20.68 & -27.92 |
| 35 | `CC(=O)c1cc2ncc(C(=O)NC3CCCCC3)cc2[nH]1` | -1.983 | 14.13 |
| 36 | `CCCNC(=O)C1CCCN(c2ccc3nncn3n2)C1` (centres unmarked) | -15.68 | -17.32 |
| 37 | `Cc1nc(N2CCCC2)nc2c1CCN(C(=O)C(C)C)CC2` | 3.066 | 9.077 |
| 38 | `CCCSc1ncc(Cl)c(C(=O)NC(CCSC)C(=O)O)n1` (centres unmarked) | 8.443 | -10.44 |
| 39 | `N#Cc1ccc(C(=O)N2CCC3(CC2)C(=O)Nc2ccccc23)cn1` | -0.6328 | 15.2 |
| 40 | `O=C(NCCc1ccccc1)N1CCCCC1C1OCCO1` (centres unmarked) | -4.025 | 12.83 |
| 41 | `CN1CCN(Cc2cnc(S(=O)(=O)CC3CC3)n2CC2CCCO2)CC1` (centres unmarked) | -4.151 | 20.91 |
| 42 | `[H][C@@]12CCN(Cc3cccnc3)C[C@@]1([H])[C@H](C(=O)N1CCCCO1)CCO2` | 3.944 | 1.561 |
| 43 | `CCC(CC)c1cc(CNC(=O)N2CCCC(C(=O)NC)C2)on1` (centres unmarked) | -12.81 | 1.71 & 5.777 |
| 44 | `c1cnn(C2CN(c3ncnc4[nH]ccc34)C2)c1` | -5.425 | -20.6 |
| 45 | `Cc1ccc(C2COCCN2C(=O)c2ccc(F)c(F)c2)o1` (centres unmarked) | 13.89 & -8.196 | 41.34 |
| 46 | `O=C(CC1CC1)N1CCC2(COCc3cnc(-c4ccccc4)nc32)C1` (centres unmarked) | -17.74 | 2.335 & 4.566 |
| 47 | `O=C(O)C(F)(F)F.[H][C@]12CCN(c3ncccn3)C[C@@]1([H])CN(Cc1cccnc1OC)C2` | -1.367 | 11.93 |
| 48 | `O=C(Nc1cnn(-c2ccccc2Cl)c1)N[C@@H]1C=C[C@H](CO)C1` | -3.994 | 19.35 & 7.776 |
| 49 | `Cc1nnsc1CNC(=O)CSCc1ccccc1Cl` | -6.854 | -35.44 |
| 50 | `Cc1ccc(-c2nc(CN3C[C@@H](C)NC[C@@H]3C)c(C)o2)s1` | -12.8 | 14.93 |
| 51 | `O=C(O)C(F)(F)F.[H][C@]12CCN(c3ccc(C)nn3)[C@@]1([H])CCC(=O)N2CCN1CCOCC1` | 15.33 | -30.49 & 0.9643 |
| 52 | `CC1CCCCN1C(=O)c1ccc2c(c1)OCCCO2` (centres unmarked) | -45.21 | -25.26 |
| 53 | `CCc1nccn1C1CCCN(C(=O)c2cnn(C)c2C2CC2)C1` (centres unmarked) | -22.05 | 6.373 |
| 54 | `COCC(=O)N1CCC2(CC1)CN(c1ncccn1)CCO2` | -15.01 & -22.56 | -27.6 |
| 55 | `O=C(O)C(F)(F)F.[H][C@@]12CN(CC3CC3)CCO[C@]1([H])CN(C(=O)C1CC(F)(F)C1)C2` | -18.13 | -31.52 |
| 56 | `CC(C)Nc1ccc2nc(C3CCNCC3)nn2c1` | -14.97 | 8.257 |
| 57 | `O=C(O)C(F)(F)F.O=C(O)C(F)(F)F.[H][C@@]12C[C@H](C(=O)N3CCCCO3)CN(Cc3cccnc3)[C@]1([H])CCO2` | -6.338 & 21.27 | -13.75 |
| 58 | `COc1ccc(CC(=O)N2CCC3(CC2)CCN(CC(C)C)C3=O)cc1` | -8.031 | -25.26 |
| 59 | `[H][C@@]12CN(Cc3ccccn3)C[C@]1([H])CN(C(=O)C1CCOC1)C2` (some centres unmarked) | -18.01 | -13.19 |
| 60 | `O=C(O)C(F)(F)F.O=C(O)C(F)(F)F.c1cncc(C2COC3(CCN(Cc4ccsc4)CC3)C2)c1` (centres unmarked) | -19.51 | -10.65 |
| 61 | `COCCOc1ccc(C(=O)N2CCCC(n3cncn3)C2)cn1` (centres unmarked) | -27.42 | -8.613 |
| 62 | `CC(C)(C(=O)NCC1CCN(Cc2ncc[nH]2)C1)c1ccccc1` (centres unmarked) | 19.34 | 12.16 |
| 63 | `CCC(NC(=O)c1cnc(N(C)C)nc1C)c1ccc(S(C)(=O)=O)cc1` (centres unmarked) | 7.931 | 0.5986 & 4.258 |
| 64 | `COCCNC(=O)CSc1nnc(OC(C)C)s1` | 6.7 | 0.6143 |
| 65 | `CCc1n[nH]c(C(=O)NCCn2ccc(C)n2)c1C` | -15.17 | -29.8 |
| 66 | `CN(CCO)Cc1nnc(C2CCN(C(=O)C(C)(C)C)CC2)n1C` | -10.12 | -0.5362 |
| 67 | `CN(Cc1ncc[nH]1)CC(c1cccs1)N1CCOCC1` (centres unmarked) | -12.02 | -7.899 |
| 68 | `O=C(CCCc1cccs1)N1CCC(N2CCNC2=O)CC1` | -0.3616 | -11.8 |
| 69 | `c1cc2n(n1)CC(CNCc1ccc(OCC3CC3)nc1)CN2` (centres unmarked) | 12.39 | 32.19 |

4 of the entries, repeated:

SMILES	Mtb cholesterol medium	Mtb glucose medium
CC(CNC(=O)c1cc(Cl)ccc1F)N1CCCC1 (centres unmarked)	4.813	3.681 & -5.273
CS(=O)(=O)N1Cc2cnn(CC3CC3)c2C(COCC2CC2)C1.O=C(O)C(F)(F)F (centres unmarked)	9.412	20.79 & 5.634
CSc1ccc(CN(CCO)C(=O)CCc2cccc(F)c2)cc1	39.59	22.75
c1cnn(C2CN(c3ncnc4[nH]ccc34)C2)c1	-5.425	-20.6